Drawing on PMC8131943, this text covers binding for two substances.

Protein sequences, listed by entry. Tags and fused reporters are not part of them. Lines headed by an entry give the natural chain unless they say otherwise; changes in a name come on top.
UniProt Q387F0: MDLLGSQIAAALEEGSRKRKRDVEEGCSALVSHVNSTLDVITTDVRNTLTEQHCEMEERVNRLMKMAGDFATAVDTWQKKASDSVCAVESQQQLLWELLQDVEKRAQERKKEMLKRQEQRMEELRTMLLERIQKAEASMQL
UniProt Q582U6: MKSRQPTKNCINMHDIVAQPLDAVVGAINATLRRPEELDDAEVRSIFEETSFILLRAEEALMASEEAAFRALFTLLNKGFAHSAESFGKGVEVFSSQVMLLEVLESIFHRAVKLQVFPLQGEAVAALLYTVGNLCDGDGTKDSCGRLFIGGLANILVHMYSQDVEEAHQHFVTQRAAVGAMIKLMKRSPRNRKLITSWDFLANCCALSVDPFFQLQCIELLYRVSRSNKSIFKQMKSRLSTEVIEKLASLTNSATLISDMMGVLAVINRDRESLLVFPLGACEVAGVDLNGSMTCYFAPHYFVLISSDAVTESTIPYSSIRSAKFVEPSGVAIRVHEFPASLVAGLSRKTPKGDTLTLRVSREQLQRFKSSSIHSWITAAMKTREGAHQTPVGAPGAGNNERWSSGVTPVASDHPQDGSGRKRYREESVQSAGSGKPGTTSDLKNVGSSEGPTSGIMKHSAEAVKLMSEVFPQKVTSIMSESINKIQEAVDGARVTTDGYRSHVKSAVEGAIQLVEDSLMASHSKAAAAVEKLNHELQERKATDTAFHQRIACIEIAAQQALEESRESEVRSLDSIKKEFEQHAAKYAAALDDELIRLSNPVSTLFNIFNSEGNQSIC
UniProt Q38FF3: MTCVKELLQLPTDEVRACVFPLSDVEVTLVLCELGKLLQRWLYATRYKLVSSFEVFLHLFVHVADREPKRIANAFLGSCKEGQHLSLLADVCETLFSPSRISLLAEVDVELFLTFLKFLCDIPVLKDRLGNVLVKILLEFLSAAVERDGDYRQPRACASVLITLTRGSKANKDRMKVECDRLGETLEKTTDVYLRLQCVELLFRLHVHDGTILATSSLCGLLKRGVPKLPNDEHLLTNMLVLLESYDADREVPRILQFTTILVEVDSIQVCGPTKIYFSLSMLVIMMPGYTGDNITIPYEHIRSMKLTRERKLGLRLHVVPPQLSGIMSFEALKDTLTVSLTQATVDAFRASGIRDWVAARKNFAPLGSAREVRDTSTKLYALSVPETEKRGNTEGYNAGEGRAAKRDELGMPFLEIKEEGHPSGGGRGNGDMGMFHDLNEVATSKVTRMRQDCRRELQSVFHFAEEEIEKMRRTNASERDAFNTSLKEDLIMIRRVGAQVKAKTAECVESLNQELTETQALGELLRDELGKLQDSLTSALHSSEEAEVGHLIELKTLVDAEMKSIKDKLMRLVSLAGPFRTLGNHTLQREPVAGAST

Results are given in words; binding and its absence hold for the method and conditions named. Binding can be weak; no strength is given. For some of these results: In cells and extracts the contact can be indirect.

In assay [1] the target is KKT16 (Tb927.11.1000), 6xHis-tagged (Trypanosoma brucei) (UniProt Q387F0). Kind of assay: cross-linking; BS3 cross-linking mass spectrometry of the purified KKT16-17-18 complex (0.5 mg/ml) in 25 mM sodium phosphate pH 7.5, 250 mM NaCl, 5% glycerol, 125 mM imidazole, 0.25 mM TCEP; on ice for 60 min; cross-linked bands cut from the gel; pLink search; both purified.
For assay [2] the target is unchanged. Briefly: pull-down; three subunits co-expressed in E. coli from a polycistronic vector (pBA202); purified through 6xHis-KKT16 with a Ni-NTA Fast Start Kit under native condition; Coomassie-stained gel.
In assay [3] the target is KKT17 (Tb927.3.2330) (Trypanosoma brucei) (UniProt Q582U6). Briefly: cross-linking; BS3 cross-linking mass spectrometry of the purified KKT16-17-18 complex (0.5 mg/ml) in 25 mM sodium phosphate pH 7.5, 250 mM NaCl, 5% glycerol, 125 mM imidazole, 0.25 mM TCEP; on ice for 60 min; cross-linked bands cut from the gel; pLink search; both purified.

Turning to “KKT17 (Tb927.3.2330) (from UniProt Q582U6)”, the binding entry in assay [1] and in assay [2] was “binds” throughout.
Turning to “KKT18 (Tb927.9.3800) (from UniProt Q38FF3)”, the binding result in assay [3] and in assay [2] was “binds” throughout.
